Assay: Molecular sensing by potential shift, DSS/APTES-modified ITO electrode
Settings: 0.0001 mol/L target molecules in phosphate buffer pH 7.4, room temperature, Ar; at time point potential no longer changed by ±0.5 mV or more for 5 minutes (15 min tryptamine, 40 min indolepropionic acid)

| SMILES | potential shift (ΔE=E−E0) [mV] |
| --- | --- |
| O=C(O)CCc1c[nH]c2ccccc12 [indolepropionic acid] | −396 |
| NCCc1c[nH]c2ccccc12 [tryptamine] | −507 |
